PubChem BioAssay AID1259425 – University of Nebraska Medical Center | 2018
This is an unselected part of about 14,000 reagents. Not given: the time to read-out.

Assay: 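Find knockdowns that reproduce the gene expression pattern seen when KSR1 is lost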 (primary screen)
System: HCT116 human colon cancer cells
Knock-down reagent: siRNA pool against human genes, 50 nM siRNA
Measurement: 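mRNA of six signature genes measured together by branched-DNA assay after 50 nM siRNA pool, blank removed, divided by geometric mean of two housekeeping genes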
Reading the numbers: BNIP3L mRNA: higher = more BNIP3L transcript after knockdown; NDRG1 mRNA: higher = more NDRG1 transcript after knockdown; BNIP3 mRNA: higher = more BNIP3 transcript after knockdown; ALDOC mRNA: higher = more ALDOC transcript after knockdown; ACSL5 mRNA: higher = more ACSL5 transcript after knockdown

no.	Gene	BNIP3L mRNA, set 1	NDRG1 mRNA, set 1	BNIP3 mRNA, set 1	ALDOC mRNA, set 1	ACSL5 mRNA, set 1
1	PCGF3	0.102	0.0756	0.279	0.0143	0.0858
2	ACO2	0.119	0.815	0.32	0.0202	0.11
3	HK3	0.0729	0.0806	0.275	0.0054	0.143
4	OSBP2	0.0928	0.318	0.273	0.0304	0.399
5	RHOBTB1	0.168	0.115	0.34	0.00491	0.217
6	TRAK1	0.186	0.529	0.4	0.0309	0.443
7	SLC44A2	0.188	0.2	0.456	0.0896	0.408
8	TBC1D5	0.096	0.198	0.36	0.0247	0.153
9	C1D	0.116	0.192	0.487	0.0715	0.236
10	SNRNP40	0.0713	0.163	0.309	0.0143	0.187
11	ATR	0.0966	0.112	0.225	0.0112	0.253
12	C11orf16	0.105	0.288	0.221	0.0237	0.269
13	EVA1B	0.128	0.169	0.216	0.0383	0.162
14	CCL21	0.052	0.146	0.237	0.0225	0.206
15	AP4E1	0.159	0.153	0.311	0.0426	0.0702
16	ATP6V1F	0.183	0.124	0.676	-0.00674	0.0596
17	NIPAL3	0.0974	0.244	0.207	0.0411	0.258
18	DOCK9	0.147	0.0802	0.332	0.0292	0.128
19	POM121	0.105	0.12	0.335	0.0292	0.176
20	TEAD3	0.108	0.138	0.175	0.00867	0.209
21	RAB3A	0.0873	0.141	0.232	0.0241	0.13
22	CGREF1	0.106	0.147	0.322	0.00662	0.163
23	DCLRE1C	0.195	0.13	0.352	0.02	0.155
24	TEX28	0.0897	0.291	0.266	0.0141	0.126
25	CPB1	0.214	0.203	0.947	0.034	0.125
26	MRPL9	0.0932	0.151	0.321	0.0381	0.168
27	SLC4A3	0.119	0.198	0.385	0.00552	0.205
28	RAB11FIP3	0.0913	0.387	0.24	0.0437	0.425
29	AGPAT1	0.158	0.162	0.346	0.0138	0.237
30	CTSO	0.187	0.351	1.02	0.0298	0.113
31	TFAP2C	0.0717	0.118	0.293	-0.0012	0.146
32	IKZF1	0.0979	0.258	0.289	0.00412	0.189
33	NCAM1	0.0651	0.347	0.295	0.0117	0.16
34	EAF1	0.197	0.762	0.19	0.0546	0.216
35	TMC7	0.111	0.247	0.297	0.0969	0.338
36	EML2	0.179	0.138	0.39	0.0522	0.248
37	FAM111A	0.105	0.412	0.315	0.041	0.257
38	TMPO	0.104	0.363	0.203	0.0338	0.149
39	NOP16	0.158	0.412	0.427	0.0922	0.197
40	ASIC3	0.16	0.121	0.285	0.0242	0.0704
41	COLGALT2	0.0859	0.664	0.279	0.0174	0.175
42	GTF2E2	0.121	0.0528	0.339	0.029	0.121
43	MOB1A	0.344	0.716	0.396	0.12	0.216
44	IRF7	0.167	0.144	0.345	0.0127	0.193
45	H4C6	0.0804	0.235	0.267	0.0134	0.174
46	RRAS	0.0753	0.119	0.272	0.0107	0.11
47	RCOR3	0.0822	0.335	0.367	0.0065	0.164
48	RIF1	0.178	0.402	0.562	0.0521	0.275
49	CHD3	0.0507	0.0618	0.197	0.0163	0.0861
50	SLC25A27	0.0643	0.0787	0.264	0.0537	0.175
51	SYNJ1	0.241	0.469	0.348	0.0428	0.44
52	SLC25A19	0.205	0.273	0.264	0.0209	0.0758
53	ZNF24	0.102	0.2	0.515	0.0199	0.355
54	MEST	0.0985	0.0796	0.195	0.0282	0.0752
55	CEPT1	0.084	0.0759	0.231	0.0403	0.148
56	ZDHHC11	0.163	0.515	0.378	0.0475	0.555
57	STON1	0.129	0.335	0.17	0.0282	0.143
58	DNAH9	0.106	0.398	0.275	0.0161	0.126
59	RECQL4	0.0688	0.144	0.303	0.0184	0.173
60	ABHD5	0.0385	0.0637	0.285	0.00468	0.157
61	DEFB126	0.0779	0.471	0.425	0.00652	0.342
62	VN1R5	0.265	0.412	0.731	0.0803	0.155
63	CAPN3	0.112	0.319	0.245	0.031	0.17
